In publication PMC6028955:
No constants are given. Whether binding was seen depends on the method and setting.

Sequences of proteins named here, by UniProt entry; tags and fusion partners are left off. A change or cut given only in a name is not applied to a line headed by its entry.
UniProt Q54G78: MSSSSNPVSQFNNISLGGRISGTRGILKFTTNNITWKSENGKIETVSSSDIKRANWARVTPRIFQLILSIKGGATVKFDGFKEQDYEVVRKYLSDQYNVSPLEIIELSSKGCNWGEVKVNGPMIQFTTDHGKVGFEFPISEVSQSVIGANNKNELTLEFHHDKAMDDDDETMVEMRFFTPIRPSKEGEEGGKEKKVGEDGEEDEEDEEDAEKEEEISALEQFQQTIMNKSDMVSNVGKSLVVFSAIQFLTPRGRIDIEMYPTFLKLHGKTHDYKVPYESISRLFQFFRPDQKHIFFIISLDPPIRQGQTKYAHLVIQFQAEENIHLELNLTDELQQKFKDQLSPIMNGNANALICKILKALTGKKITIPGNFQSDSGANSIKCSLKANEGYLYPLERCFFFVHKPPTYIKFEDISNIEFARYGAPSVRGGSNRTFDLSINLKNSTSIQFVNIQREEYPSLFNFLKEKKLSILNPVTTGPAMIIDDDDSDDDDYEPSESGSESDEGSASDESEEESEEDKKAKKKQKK
UniProt Q54S43: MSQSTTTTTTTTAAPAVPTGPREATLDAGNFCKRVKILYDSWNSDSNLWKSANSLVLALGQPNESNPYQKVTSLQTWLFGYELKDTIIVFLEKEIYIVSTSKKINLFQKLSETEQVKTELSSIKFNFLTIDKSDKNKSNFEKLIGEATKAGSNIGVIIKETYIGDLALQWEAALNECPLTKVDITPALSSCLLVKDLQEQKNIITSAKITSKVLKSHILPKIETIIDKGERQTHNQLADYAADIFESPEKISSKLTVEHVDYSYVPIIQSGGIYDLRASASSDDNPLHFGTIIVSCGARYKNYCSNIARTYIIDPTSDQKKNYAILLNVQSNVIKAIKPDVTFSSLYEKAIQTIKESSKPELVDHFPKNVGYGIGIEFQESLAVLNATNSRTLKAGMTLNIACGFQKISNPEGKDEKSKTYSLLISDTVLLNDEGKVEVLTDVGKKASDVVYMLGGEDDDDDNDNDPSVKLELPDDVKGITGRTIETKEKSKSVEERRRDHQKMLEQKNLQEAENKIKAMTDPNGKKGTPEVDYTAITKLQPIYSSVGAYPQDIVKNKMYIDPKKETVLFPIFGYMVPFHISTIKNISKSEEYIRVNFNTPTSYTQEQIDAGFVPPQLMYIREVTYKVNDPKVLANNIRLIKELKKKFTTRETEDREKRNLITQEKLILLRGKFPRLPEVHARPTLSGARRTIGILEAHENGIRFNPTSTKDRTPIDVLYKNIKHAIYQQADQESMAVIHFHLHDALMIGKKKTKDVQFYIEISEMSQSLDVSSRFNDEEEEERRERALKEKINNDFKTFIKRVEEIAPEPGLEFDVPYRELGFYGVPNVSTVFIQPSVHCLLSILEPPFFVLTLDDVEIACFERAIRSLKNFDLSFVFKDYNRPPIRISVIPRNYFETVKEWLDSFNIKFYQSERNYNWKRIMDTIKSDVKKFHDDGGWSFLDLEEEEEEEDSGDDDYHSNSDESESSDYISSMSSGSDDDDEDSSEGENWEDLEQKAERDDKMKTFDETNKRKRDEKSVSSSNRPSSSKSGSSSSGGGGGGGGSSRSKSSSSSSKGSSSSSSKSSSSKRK

Target: DdFACT complex (DdSSRP1 residues 1–478 with DdSpt16 residues 1–955) (Dictyostelium discoideum) (UniProt Q54G78+Q54S43)
Experiment: AUC; sedimentation velocity (4 °C, 49,000 rpm) and sedimentation equilibrium; 25 mM Tris-HCl pH 7.6, 200 mM NaCl, 2 mM TCEP; SE fitted with a single species model; both purified

In the case of “DdFACT complex (DdSSRP1 residues 1–478 with DdSpt16 residues 1–955) (from UniProt Q54G78 1-478; Q54S43 1-955)”, the binding is reported as “no binding (tested: 0.5 and 0.2 mg/ml)”.
